No constants are given. Whether binding was seen depends on the method and setting. Binding seen in cells or lysates may run through a third protein. A yes stands for co-enrichment or nearness to the bait. Other partners may have been found.
What follows are substances tested against p11 (S100A10) (mouse (endogenous in DRN)) (UniProt P08207) (assay: affinity purification with mass spectrometry; protein extracted from mouse DRN incubated with primary antibodies (anti-p11) or control IgG overnight at 4 °C, protein A/G magnetic beads 2 h, washed 3 times with lysis buffer; SDS-PAGE, gel slices, LC-MS/MS (IP-MS)).

Protein sequences, listed by entry. Tags and fused reporters are not part of them. Residues count along the entry.
UniProt P08207: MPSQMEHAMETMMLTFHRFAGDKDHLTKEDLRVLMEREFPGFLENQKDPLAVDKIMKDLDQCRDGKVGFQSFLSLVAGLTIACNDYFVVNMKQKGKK
UniProt Q01097, residues 27-1482: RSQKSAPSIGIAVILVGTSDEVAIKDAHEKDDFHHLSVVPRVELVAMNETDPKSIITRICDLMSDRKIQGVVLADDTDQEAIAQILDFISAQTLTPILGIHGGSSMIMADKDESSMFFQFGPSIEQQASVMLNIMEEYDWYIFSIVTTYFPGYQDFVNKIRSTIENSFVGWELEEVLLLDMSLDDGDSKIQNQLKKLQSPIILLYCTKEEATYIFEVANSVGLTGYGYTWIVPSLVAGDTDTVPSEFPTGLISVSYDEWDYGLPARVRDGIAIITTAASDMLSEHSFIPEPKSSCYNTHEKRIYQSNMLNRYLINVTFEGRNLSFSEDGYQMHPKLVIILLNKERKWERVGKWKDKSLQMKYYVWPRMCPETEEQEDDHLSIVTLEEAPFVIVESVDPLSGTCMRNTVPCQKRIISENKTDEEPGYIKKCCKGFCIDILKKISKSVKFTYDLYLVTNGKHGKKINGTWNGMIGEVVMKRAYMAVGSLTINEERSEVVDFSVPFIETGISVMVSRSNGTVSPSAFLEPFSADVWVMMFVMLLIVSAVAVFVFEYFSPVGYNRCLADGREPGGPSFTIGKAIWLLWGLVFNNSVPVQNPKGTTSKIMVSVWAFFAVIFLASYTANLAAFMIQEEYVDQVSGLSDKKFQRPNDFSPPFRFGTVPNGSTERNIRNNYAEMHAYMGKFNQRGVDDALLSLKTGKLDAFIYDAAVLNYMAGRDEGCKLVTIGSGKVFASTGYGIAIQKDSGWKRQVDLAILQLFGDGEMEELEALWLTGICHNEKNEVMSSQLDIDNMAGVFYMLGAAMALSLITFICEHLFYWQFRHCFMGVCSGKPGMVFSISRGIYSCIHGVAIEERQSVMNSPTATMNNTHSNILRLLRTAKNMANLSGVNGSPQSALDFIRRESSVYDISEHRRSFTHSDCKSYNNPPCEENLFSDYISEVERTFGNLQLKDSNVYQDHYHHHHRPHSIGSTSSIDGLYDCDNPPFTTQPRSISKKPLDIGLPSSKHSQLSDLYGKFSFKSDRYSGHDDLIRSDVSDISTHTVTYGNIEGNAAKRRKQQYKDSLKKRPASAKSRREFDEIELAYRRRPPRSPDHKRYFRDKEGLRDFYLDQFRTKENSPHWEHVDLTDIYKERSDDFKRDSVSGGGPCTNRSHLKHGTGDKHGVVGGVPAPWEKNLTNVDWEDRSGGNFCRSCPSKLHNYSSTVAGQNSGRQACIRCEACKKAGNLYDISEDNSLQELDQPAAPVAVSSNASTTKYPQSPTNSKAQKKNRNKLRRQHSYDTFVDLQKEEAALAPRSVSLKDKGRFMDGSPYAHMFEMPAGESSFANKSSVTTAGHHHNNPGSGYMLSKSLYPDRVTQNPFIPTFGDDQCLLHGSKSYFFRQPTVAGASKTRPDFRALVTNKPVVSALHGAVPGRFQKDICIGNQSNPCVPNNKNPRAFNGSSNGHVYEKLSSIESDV
UniProt P07356: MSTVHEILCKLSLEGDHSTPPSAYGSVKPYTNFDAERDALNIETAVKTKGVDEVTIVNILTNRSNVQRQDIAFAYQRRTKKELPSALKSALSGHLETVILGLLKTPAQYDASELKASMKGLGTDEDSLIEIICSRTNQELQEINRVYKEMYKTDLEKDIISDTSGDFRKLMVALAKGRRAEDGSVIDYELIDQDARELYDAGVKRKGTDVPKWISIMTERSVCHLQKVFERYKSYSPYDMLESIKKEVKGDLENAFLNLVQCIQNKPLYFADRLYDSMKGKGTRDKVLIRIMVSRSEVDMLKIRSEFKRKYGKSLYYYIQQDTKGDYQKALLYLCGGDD

Row | Substance | binding
1 | GluN2B (from UniProt Q01097 27-1482) (receptor) | binds
2 | Annexin A2 (from UniProt P07356 1-339) | binds
3 | GluN2A (from UniProt P35436 23-1464) (receptor) | binds

Source: paper PMC10665321
